{"source": "PubChem BioAssay AID1259405 (NCATS, 2018)", "test": "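Knock-downs that lift recombinant protein yield in hamster ovary cells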 (primary screen)", "cell system": "Chinese hamster CHO-K1 ovary cells with stable secreted eGFP expression", "reagent": "single siRNA against mouse genes, 0.8 pmol siRNA per well (2 µl of 400 nM stock)", "time to read-out": "3 days", "measured": "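Percent of the per-plate non-targeting control median for intracellular GFP per well by laser scanning cytometry and for cell viability by ATP luminescence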", "scale": "GFP, % of control: higher = more GFP per well, higher productivity; viability (ATP), % of control: higher = more viable cells (more ATP)", "call rule": "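Called active when intracellular GFP, relative to negative control, is at or above 120%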", "note": "The deposit covers about 50,000 reagents; shown is a part drawn at random. About 4,000 of all reagents (8%) were called active. 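Mouse siRNA library applied to hamster cells; one well for each siRNA.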"}
{"target": "Hmmr", "PubChem SID": "SID363581688", "GFP, % of control": 107, "viability (ATP), % of control": 91, "Outcome": "inactive"}
{"target": "Hmmr", "PubChem SID": "SID363589182", "GFP, % of control": 63.8, "viability (ATP), % of control": 51.9, "Outcome": "inactive"}
{"target": "Slc25a16", "PubChem SID": "SID363569950", "GFP, % of control": 62.8, "viability (ATP), % of control": 76.7, "Outcome": "inactive"}
{"target": "Slc25a16", "PubChem SID": "SID363576990", "GFP, % of control": 53.8, "viability (ATP), % of control": 49.4, "Outcome": "inactive"}
{"target": "Slc25a16", "PubChem SID": "SID363578398", "GFP, % of control": 75.3, "viability (ATP), % of control": 55.2, "Outcome": "inactive"}
{"target": "Idnk", "PubChem SID": "SID363552135", "GFP, % of control": 67.6, "viability (ATP), % of control": 56, "Outcome": "inactive"}
{"target": "Idnk", "PubChem SID": "SID363585271", "GFP, % of control": 78.1, "viability (ATP), % of control": 75.3, "Outcome": "inactive"}
{"target": "Idnk", "PubChem SID": "SID363585622", "GFP, % of control": 101, "viability (ATP), % of control": 163, "Outcome": "inactive"}
{"target": "Nifk", "PubChem SID": "SID363569380", "GFP, % of control": 75.9, "viability (ATP), % of control": 99, "Outcome": "inactive"}
{"target": "Nifk", "PubChem SID": "SID363577124", "GFP, % of control": 96.7, "viability (ATP), % of control": 50.7, "Outcome": "inactive"}
{"target": "Nifk", "PubChem SID": "SID363578532", "GFP, % of control": 92, "viability (ATP), % of control": 107, "Outcome": "inactive"}
{"target": "Sdf2", "PubChem SID": "SID363545228", "GFP, % of control": 241, "viability (ATP), % of control": 173, "Outcome": "active"}
{"target": "Sdf2", "PubChem SID": "SID363548741", "GFP, % of control": 89.6, "viability (ATP), % of control": 62.9, "Outcome": "inactive"}
{"target": "Sdf2", "PubChem SID": "SID363562547", "GFP, % of control": 56.8, "viability (ATP), % of control": 48.7, "Outcome": "inactive"}
{"target": "Washc1", "PubChem SID": "SID363554542", "GFP, % of control": 77, "viability (ATP), % of control": 74.4, "Outcome": "inactive"}
{"target": "Washc1", "PubChem SID": "SID363567989", "GFP, % of control": 19.6, "viability (ATP), % of control": 23.7, "Outcome": "inactive"}
{"target": "Washc1", "PubChem SID": "SID363586048", "GFP, % of control": 93.6, "viability (ATP), % of control": 103, "Outcome": "inactive"}
{"target": "Btnl10", "PubChem SID": "SID363547047", "GFP, % of control": 77.1, "viability (ATP), % of control": 70.5, "Outcome": "inactive"}
{"target": "Btnl10", "PubChem SID": "SID363549859", "GFP, % of control": 75, "viability (ATP), % of control": 108, "Outcome": "inactive"}
{"target": "Btnl10", "PubChem SID": "SID363587913", "GFP, % of control": 94.3, "viability (ATP), % of control": 96.8, "Outcome": "inactive"}
{"target": "Ube2r2", "PubChem SID": "SID363572807", "GFP, % of control": 63.7, "viability (ATP), % of control": 69, "Outcome": "inactive"}
{"target": "Ube2r2", "PubChem SID": "SID363578087", "GFP, % of control": 87.7, "viability (ATP), % of control": 91, "Outcome": "inactive"}
{"target": "Ube2r2", "PubChem SID": "SID363582311", "GFP, % of control": 87.4, "viability (ATP), % of control": 97.7, "Outcome": "inactive"}
{"target": "Lamb1", "PubChem SID": "SID363582645", "GFP, % of control": 148, "viability (ATP), % of control": 153, "Outcome": "active"}
{"target": "Lamb1", "PubChem SID": "SID363584405", "GFP, % of control": 116, "viability (ATP), % of control": 76.7, "Outcome": "inactive"}
{"target": "Tbc1d9b", "PubChem SID": "SID363545242", "GFP, % of control": 85.9, "viability (ATP), % of control": 34.7, "Outcome": "inactive"}
{"target": "Tbc1d9b", "PubChem SID": "SID363548755", "GFP, % of control": 58.3, "viability (ATP), % of control": 56.1, "Outcome": "inactive"}
{"target": "Tbc1d9b", "PubChem SID": "SID363562561", "GFP, % of control": 42.5, "viability (ATP), % of control": 33.1, "Outcome": "inactive"}
{"target": "Dll4", "PubChem SID": "SID363568857", "GFP, % of control": 66.3, "viability (ATP), % of control": 88.1, "Outcome": "inactive"}
{"target": "Dll4", "PubChem SID": "SID363576249", "GFP, % of control": 125, "viability (ATP), % of control": 88.1, "Outcome": "active"}
{"target": "Dll4", "PubChem SID": "SID363579065", "GFP, % of control": 76, "viability (ATP), % of control": 58.7, "Outcome": "inactive"}
{"target": "Tmem259", "PubChem SID": "SID363554592", "GFP, % of control": 121, "viability (ATP), % of control": 107, "Outcome": "active"}
{"target": "Tmem259", "PubChem SID": "SID363568039", "GFP, % of control": 99.8, "viability (ATP), % of control": 93.2, "Outcome": "inactive"}
{"target": "Tmem259", "PubChem SID": "SID363586098", "GFP, % of control": 130, "viability (ATP), % of control": 100, "Outcome": "active"}
{"target": "Slc67a2", "PubChem SID": "SID363547874", "GFP, % of control": 34.9, "viability (ATP), % of control": 34.2, "Outcome": "inactive"}
{"target": "Slc67a2", "PubChem SID": "SID363558643", "GFP, % of control": 87.5, "viability (ATP), % of control": 98.5, "Outcome": "inactive"}
{"target": "Slc67a2", "PubChem SID": "SID363560401", "GFP, % of control": 101, "viability (ATP), % of control": 91.9, "Outcome": "inactive"}
{"target": "Tmem161b", "PubChem SID": "SID363543883", "GFP, % of control": 69, "viability (ATP), % of control": 69.9, "Outcome": "inactive"}
{"target": "Tmem161b", "PubChem SID": "SID363551619", "GFP, % of control": 53.6, "viability (ATP), % of control": 41.3, "Outcome": "inactive"}
{"target": "Tmem161b", "PubChem SID": "SID363559224", "GFP, % of control": 84.2, "viability (ATP), % of control": 89, "Outcome": "inactive"}

Limited to “viability (ATP), % of control”, for 6 of the entries above:
Ube2r2 [SID363582311]: 97.7
Lamb1 [SID363582645]: 153
Lamb1 [SID363584405]: 76.7
Tbc1d9b [SID363545242]: 34.7
Tbc1d9b [SID363548755]: 56.1
Tbc1d9b [SID363562561]: 33.1
